Chains of the proteins cited; added tags and fusions are not shown. Residues count along the entry.
UniProt P56817, 46-501 limits assumed: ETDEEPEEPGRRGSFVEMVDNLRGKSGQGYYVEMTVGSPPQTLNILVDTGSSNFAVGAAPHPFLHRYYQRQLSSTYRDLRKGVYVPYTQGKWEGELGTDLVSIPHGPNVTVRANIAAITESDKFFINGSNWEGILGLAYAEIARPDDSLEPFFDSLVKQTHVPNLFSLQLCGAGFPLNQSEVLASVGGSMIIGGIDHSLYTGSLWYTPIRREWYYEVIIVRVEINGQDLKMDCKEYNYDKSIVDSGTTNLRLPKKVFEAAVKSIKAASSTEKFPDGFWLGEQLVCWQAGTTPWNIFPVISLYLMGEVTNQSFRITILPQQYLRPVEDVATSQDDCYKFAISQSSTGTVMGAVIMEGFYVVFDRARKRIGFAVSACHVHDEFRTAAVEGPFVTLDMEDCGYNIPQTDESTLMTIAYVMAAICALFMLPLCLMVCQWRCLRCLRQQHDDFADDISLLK

In patent publication US7273882B2, “Aminoacetamide acyl guanidines as β-secretase inhibitors” (priority 2006, dated 2007):

Target: BACE1 enzyme (Homo sapiens, UniProt P56817)
Assay: Radioligand displacement (binding) assay with radiolabeled BACE inhibitor on HEK293-9B.A1 cell homogenate
Conditions: read-out: Activity Rating (activity based on IC50 values), HEK293-9B.A1 cell homogenate overexpressing BACE1
Source text: There are a number of methods by which inhibitors of the BACE enzyme can be identified experimentally. The enzyme can be obtained from membrane samples from natural tissues or cultured cells or can be expressed recombinantly in a host cell by well known methods of molecular biology. The whole enzyme or a portion thereof can be expressed, for example, in bacterial, insect or mammalian cells to obtain a catalytically active enzyme species. The enzymatic activity and/or ligand binding capability of the enzyme can be assessed within these membrane samples, or the enzyme can be purified to varying extents. As an illustrative example, the nucleic acid sequence encoding the pro and catalytic domains of human BACE can be appended on the 5′ end with an untranslated and signal sequence from the gene for acetylcholinesterase, and on the 3′ end with a sequence encoding a poly-histidine tag. This cDNA can then be expressed in Drosophila melanogaster S2 cells in which the signal and pro sequences of the transcribed/translated protein are removed by cellular proteases and the catalytic domain, appended by a C-terminal poly-histidine tag, is secreted out into the cellular medium. […]

COc1ccc(-c2noc(C)c2C(=O)N=C(N)NCc2cc(Cl)c(NC(=O)CN3CCCCCC3c3ccccn3)c(Cl)c2)cc1 (stereo not shown)
IC50: < 0.1 µM

The match of structure and compound is tentative.
